We go through 23 sequences from publication PMC7819943, “Rice protein-binding microarrays: a tool to detect cis-acting elements near promoter regions in rice”.

Protein sequences, listed by entry. Tags and fused reporters are not part of them.
UniProt Q0JBA9, entry or part of it: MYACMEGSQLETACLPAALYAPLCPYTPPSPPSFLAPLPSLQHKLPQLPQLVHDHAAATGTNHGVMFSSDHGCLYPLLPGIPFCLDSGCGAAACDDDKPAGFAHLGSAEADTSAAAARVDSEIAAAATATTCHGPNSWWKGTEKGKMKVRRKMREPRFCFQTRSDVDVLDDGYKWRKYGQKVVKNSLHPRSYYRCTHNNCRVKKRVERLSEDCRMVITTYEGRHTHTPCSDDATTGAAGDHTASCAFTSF

Some of the results follow.

This experiment deals with OsWRKY34 (Oryza sativa, UniProt Q0JBA9 1-250). The experiment in a line: protein-binding microarray (RPBM); PBS, 2% BSA, 51.3 ng/ul salmon testes DNA, 50 uM zinc acetate, 200 nM TF, 25 C, 1 h; high values mean tight binding. Particulars: protein: recombinant; tags: N-terminal polyhistidine and DsRed monomer fusion (pET32a); label: CyDye5-dUTP incorporated in the synthesized complementary strand; 3' TTTTT single-stranded linker to array surface; dsDNA, one strand shown. In outline: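 The binding signal for each feature is its fluorescence intensity in arbitrary units. An Axon 4000B scanner was used to read a custom Agilent array that had been made double-stranded with Cy5-dUTP primer extension, blocked with 2% BSA, incubated at 25 °C for 1 h with 200 nM protein in PBS, 2% BSA, salmon testes DNA and 50 µM zinc acetate, and washed. The protein was an N-terminal polyhistidine–DsRed transcription factor fusion from E. coli BL21-CodonPlus, purified on Ni–NTA.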
Consider “TCCGTCCTTTGCAAGCCAAATTCCTCCCGCCGCCGCCGCCCGGAGTCACCTAGTGCAG”, for which the binding signal is 8170 fluorescence intensity (a.u.).

Turning to “GCTAGATTGGATAAGGAGGGGAGGAGGGTGGAGGGGAGGGCGGAGTCACCTAGTGCAG”, the binding signal is 22700 fluorescence intensity (a.u.).

Take “CTGATTACACCTTTTTGCAGTTTAGCATTGCCACATAATCCGGAGTCACCTAGTGCAG”: the binding signal was 13500 fluorescence intensity (a.u.).

As for “ATCGCTTTAATATTCTTGCTCGTTATTCCTCCACCAGGTGCGGAGTCACCTAGTGCAG”, the binding signal is 8940 fluorescence intensity (a.u.). Turning to “AAATTTATTGTTTGGCTGGAAGACGTGGGGTTTTAAGAGGCGGAGTCACCTAGTGCAG”, the binding signal is 8370 fluorescence intensity (a.u.). Turning to “GTGCTGTTTTTATCGTCCAGGTCTTGGTACAGGTTTAGTCCGGAGTCACCTAGTGCAG”, the binding signal is 10700 fluorescence intensity (a.u.). As for “GATCGAGTCGTGGGTGTGCATGGTGTGCGTGGCGTCGGTTCGGAGTCACCTAGTGCAG”, the binding signal was 8290 fluorescence intensity (a.u.).

Consider “ACCGACACCAGGGGCCCACATACGCACGCACCTCGCACGTCGGAGTCACCTAGTGCAG”, for which the binding signal is 8810 fluorescence intensity (a.u.). Then “TTTTTCCTTTTTCTCTTTTCTTTTTTTCTTCTCTTTTTCTCGGAGTCACCTAGTGCAG”, with 9820 fluorescence intensity (a.u.); and “TGGGTTTCTAATGGTGGGGTTAGAGCTGGAAGGCGGAGATCGGAGTCACCTAGTGCAG”, with 8330 fluorescence intensity (a.u.); and “CTTCCGCCAACCGCCCACCACCCGTTCGACCATTTGCTTGCGGAGTCACCTAGTGCAG”, with 8740 fluorescence intensity (a.u.). In the case of “AGTGCGATCTCAAGCATGCACATGTTTCTTTAGATTGTTCCGGAGTCACCTAGTGCAG”, the binding signal is 8190 fluorescence intensity (a.u.). As for “ACTTTTGTTTCATTGTTAGCCCATAGTTCCTTTTTGTATTCGGAGTCACCTAGTGCAG”, the binding signal was 11400 fluorescence intensity (a.u.).

“CCGACATAACCACCTTCATGCCGCCGCCGCCGTTCGCCGGCGGAGTCACCTAGTGCAG”: the binding signal was 10400 fluorescence intensity (a.u.). Turning to “GCTGCTAACCTCGCCCCACTTTCCCCGCCTCGGGTCGCGCCGGAGTCACCTAGTGCAG”, the binding signal was 8480 fluorescence intensity (a.u.). For “TTTCTCGGGTTGCTACTGTTCATTGCGCGCCAGGTGTTCGCGGAGTCACCTAGTGCAG”, the binding signal was 9970 fluorescence intensity (a.u.). In the case of “GGTCTGGTTTTATCGGTTTATATGTGTGTGTTTTTTTTGTCGGAGTCACCTAGTGCAG”, the binding signal is 33500 fluorescence intensity (a.u.). Turning to “CCTTTGTCGTTTCCATATAGAACTCTGGTTGTCTTTCTTTCGGAGTCACCTAGTGCAG”, the binding signal was 11600 fluorescence intensity (a.u.). In the case of “TCACTTTGACCATTAATATTTTTAAACTACAATGTCTCTACGGAGTCACCTAGTGCAG”, the binding signal is 8220 fluorescence intensity (a.u.). Then “TTCTTCACACACACACACGGCCTCGTGGCTTCGCGACTCCCGGAGTCACCTAGTGCAG”, with 9340 fluorescence intensity (a.u.); and “AGCCATCTATCACCATGGCTGAAGCCATGTTATATATATCCGGAGTCACCTAGTGCAG”, with 8560 fluorescence intensity (a.u.); and “CCCTTTCACATGTCACCTCTGACCCACAAACAAACCCTTTCGGAGTCACCTAGTGCAG”, with 8210 fluorescence intensity (a.u.). Then “CCCTGTAAACATCACCTACTTTGATCTCTCAAATAATTCTCGGAGTCACCTAGTGCAG”, with 9180 fluorescence intensity (a.u.).
